Assay results as given in patent US6570002 (Johns Hopkins, dated 2003).

Columns and labels:
[1] = biological target: KSBcl-2 (Kaposi sarcoma-associated herpes virus Bcl-2 homologue) (Kaposi sarcoma-associated herpes virus); test: yeast two-hybrid / co-immunoprecipitation from COS-1 cell lysates (FIGS. 6, 7B)
[2] = biological target: KSBcl-2 (Kaposi sarcoma-associated herpes virus Bcl-2 homologue) (Kaposi sarcoma-associated herpes virus); test: yeast two-hybrid and co-immunoprecipitation on COS-1 cell lysates (FIGS. 6, 7, 8)
[3] = biological target: KSBcl-2 (Kaposi sarcoma-associated herpes virus Bcl-2 homologue) (Kaposi sarcoma-associated herpes virus); test: co-immunoprecipitation from COS-1 cell lysates (FIG. 7B)

Measured: binding

B1: Aven (protein)
chain: MQAERGARGGRGRRPGRGRPGGDRHSERPGAAAAVARGGGGGGGGDGGGRRGRGRGRGFRGARGGRGGGGAPRGSRREPGGWGAGASAPVEDDSDAETYGEENDEQGNYSKRKIVSNWDRYQDIEKEVNNESGESQRGTDFSVLLSSAGDSFSQFRFAEEKEWDSEASCPKQNSAFYVDSELLVRALQELPLCLRLNVAAELVQGTVPLEVPQVKPKRTDDGKGLGMQLKGPLGPGGRGPIFELKSVAAGCPVLLGKDNPSPGPSRDSQKPTSPLQSAGDHLEEELDLLLNLDAPIKEGDNILPDQTSQDLKSKEDGEVVQEEEVCAKPSVTEEKNMEPEQPSTSKNVTEEELEDWLDSMIS
binds: all assays above

Results are given in words; binding and its absence hold for the method and conditions named. Binding seen in cells or lysates may run through a third protein. Binding can be weak; no strength is given.
